This passage reports binding results from paper PMC10076346.

Amino acid sequences for entries named in this document (tags omitted).
UniProt P17844: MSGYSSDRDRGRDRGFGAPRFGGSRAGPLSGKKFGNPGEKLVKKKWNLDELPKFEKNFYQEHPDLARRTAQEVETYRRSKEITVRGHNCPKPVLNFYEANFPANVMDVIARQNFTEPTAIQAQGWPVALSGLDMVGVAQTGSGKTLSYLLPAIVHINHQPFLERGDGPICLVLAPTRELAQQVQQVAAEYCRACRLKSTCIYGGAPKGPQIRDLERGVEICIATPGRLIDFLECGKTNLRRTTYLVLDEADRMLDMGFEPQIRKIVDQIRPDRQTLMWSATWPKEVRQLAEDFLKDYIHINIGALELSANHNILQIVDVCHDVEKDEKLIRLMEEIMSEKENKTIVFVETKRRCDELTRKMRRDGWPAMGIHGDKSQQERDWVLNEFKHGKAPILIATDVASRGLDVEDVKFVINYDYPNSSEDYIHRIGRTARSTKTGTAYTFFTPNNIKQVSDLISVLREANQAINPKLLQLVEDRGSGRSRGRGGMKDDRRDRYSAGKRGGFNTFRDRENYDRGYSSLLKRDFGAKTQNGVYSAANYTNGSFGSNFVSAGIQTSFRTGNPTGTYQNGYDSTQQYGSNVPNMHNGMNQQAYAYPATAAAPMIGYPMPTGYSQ
UniProt Q86U44: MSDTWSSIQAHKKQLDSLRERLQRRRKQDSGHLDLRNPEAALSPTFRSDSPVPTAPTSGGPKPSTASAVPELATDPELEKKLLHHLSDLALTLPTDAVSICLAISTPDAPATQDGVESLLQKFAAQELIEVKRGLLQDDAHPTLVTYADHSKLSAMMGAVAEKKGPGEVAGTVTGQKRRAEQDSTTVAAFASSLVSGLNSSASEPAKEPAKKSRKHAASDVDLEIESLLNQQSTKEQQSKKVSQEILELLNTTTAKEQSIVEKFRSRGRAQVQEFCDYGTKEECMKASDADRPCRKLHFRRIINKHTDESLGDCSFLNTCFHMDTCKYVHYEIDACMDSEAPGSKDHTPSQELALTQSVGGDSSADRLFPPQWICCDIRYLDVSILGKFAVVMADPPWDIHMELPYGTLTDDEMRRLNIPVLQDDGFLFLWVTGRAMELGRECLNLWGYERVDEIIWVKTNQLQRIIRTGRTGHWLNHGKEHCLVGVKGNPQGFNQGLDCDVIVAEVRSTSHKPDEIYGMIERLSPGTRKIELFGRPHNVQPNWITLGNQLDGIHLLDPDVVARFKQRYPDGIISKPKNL

Results are given in words; binding and its absence hold for the method and conditions named. Binding seen in cells or lysates may run through a third protein. Some results given as binding are weak or reduced against the parent protein; the word gives no strength.

The target of this assay is ATP-dependent RNA helicase DEAD box helicase 5 (DDX5) (human (endogenous in RD)) (UniProt P17844). Briefly: co-IP; endogenous DDX5 IP (Dynabeads Protein G) or YTHDC1 IP (Dynabeads Protein A) from RD whole-cell lysate; co-IP buffer 50 mM Tris-HCl pH 7.5, 150 mM NaCl, 1 mM EDTA, 0.25% NP-40, 5% glycerol; antibody overnight at 4 °C; western blot. For orientation: In western blotting, separated proteins are transferred to a membrane and probed.

Take METTL3 (from UniProt Q86U44 1-580): the binding result is given as “binds”.

B1: Drosha (protein, UniProt Q9NRR4 1-1374)
chain: MMQGNTCHRMSFHPGRGCPRGRGGHGARPSAPSFRPQNLRLLHPQQPPVQYQYEPPSAPSTTFSNSPAPNFLPPRPDFVPFPPPMPPSAQGPLPPCPIRPPFPNHQMRHPFPVPPCFPPMPPPMPCPNNPPVPGAPPGQGTFPFMMPPPSMPHPPPPPVMPQQVNYQYPPGYSHHNFPPPSFNSFQNNPSSFLPSANNSSSPHFRHLPPYPLPKAPSERRSPERLKHYDDHRHRDHSHGRGERHRSLDRRERGRSPDRRRQDSRYRSDYDRGRTPSRHRSYERSRERERERHRHRDNRRSPSLERSYKKEYKRSGRSYGLSVVPEPAGCTPELPGEIIKNTDSWAPPLEIVNHRSPSREKKRARWEEEKDRWSDNQSSGKDKNYTSIKEKEPEETMPDKNEEEEEELLKPVWIRCTHSENYYSSDPMDQVGDSTVVGTSRLRDLYDKFEEELGSRQEKAKAARPPWEPPKTKLDEDLESSSESECESDEDSTCSSSSDSEVFDVIAEIKRKKAHPDRLHDELWYNDPGQMNDGPLCKCSAKARRTGIRHSIYPGEEAIKPCRPMTNNAGRLFHYRITVSPPTNFLTDRPTVIEYDDHEYIFEGFSMFAHAPLTNIPLCKVIRFNIDYTIHFIEEMMPENFCVKGLELFSLFLFRDILELYDWNLKGPLFEDSPPCCPRFHFMPRFVRFLPDGGKEVLSMHQILLYLLRCSKALVPEEEIANMLQWEELEWQKYAEECKGMIVTNPGTKPSSVRIDQLDREQFNPDVITFPIIVHFGIRPAQLSYAGDPQYQKLWKSYVKLRHLLANSPKVKQTDKQKLAQREEALQKIRQKNTMRREVTVELSSQGFWKTGIRSDVCQHAMMLPVLTHHIRYHQCLMHLDKLIGYTFQDRCLLQLAMTHPSHHLNFGMNPDHARNSLSNCGIRQPKYGDRKVHHMHMRKKGINTLINIMSRLGQDDPTPSRINHNERLEFLGDAVVEFLTSVHLYYLFPSLEEGGLATYRTAIVQNQHLAMLAKKLELDRFMLYAHGPDLCRESDLRHAMANCFEALIGAVYLEGSLEEAKQLFGRLLFNDPDLREVWLNYPLHPLQLQEPNTDRQLIETSPVLQKLTEFEEAIGVIFTHVRLLARAFTLRTVGFNHLTLGHNQRMEFLGDSIMQLVATEYLFIHFPDHHEGHLTLLRSSLVNNRTQAKVAEELGMQEYAITNDKTKRPVALRTKTLADLLESFIAALYIDKDLEYVHTFMNVCFFPRLKEFILNQDWNDPKSQLQQCCLTLRTEGKEPDIPLYKTLQTVGPSHARTYTVAVYFKGERIGCGKGPSIQQAEMGAAMDALEKYNFPQMAHQKRFIERKYRQELKEMRWEREHQEREPDETEDIKK
Turning to B1, the binding entry is on record as “binds”.
